# In PubChem BioAssay AID493014 (National Center for Advancing Translational Sciences (NCATS), 2011):
# Some of the results follow. These are further read-outs of the screen, such as a control signal, another cell line or another target. No call is given for them. Compounds called inactive in the main read-out are mostly missing here. Potencies come from curve fits of mixed quality, noted in brackets.
# Assay: qHTS Assay to Find Inhibitors of Chronic Active B-Cell Receptor Signaling
# Settings: ABC-DLBCL IkBa-CBG/CBR reporter, luminescence ratio (green luciferase fused to IkBa over red control in TMD8 lymphoma cells), 4 h
# How it was run: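 Concentration-response series (up to 46 uM) were applied to TMD8 dual-reporter cells for 4 h at 37C with doxycycline. Green/red ratio, after filter-overlap correction, defined %Activity; red signal alone was normalised to basal cells and zero luminescence.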
# [1] = measured here: CBR red luminescence, cell number
# [2] = measured here: IkBa-CBG green luminescence
Compound,AC50 [1],AC50 [2]
N#Cc1ncc(C(F)(F)F)cc1Sc1ccccc1N,"29.1 µM [rising, single point]",–
O=C(Nc1ccc(Cl)cc1)Nc1ccc(-c2cnco2)cc1,"10 µM [rising, partial curve]",–
COc1ccc(/C=C\C(=O)CC(O)(c2ccccc2)C(F)(F)F)cc1 (configuration not stated),"1.16 µM [falling, partial curve, poor fit]",–
O=C(Nc1ccccc1C(=O)Nc1ccncc1)c1ccc([N+](=O)[O-])cc1,"2.51 µM [falling, full curve]",–
CCN1CCN(c2nc3c(c(=O)[nH]c(=O)n3C)n2Cc2ccccc2F)CC1,"35.5 µM [rising, single point]",–
Cc1sc(NC(=O)c2ccco2)c(C(c2cccnc2)N2CCC(C)CC2)c1C (configuration not stated),"1.3 µM [falling, partial curve, poor fit]",–
O=C(Nc1cc(C(F)(F)F)ccc1N1CCOCC1)C1=COCCO1,"4.61 µM [falling, partial curve]",–
COc1ccc(CCn2c(=N)c(C(=O)NC3CCCCC3)cc3c(=O)n4ccccc4nc32)cc1,"3.55 µM [falling, single point]",–
CC(=O)c1sc(NC(=O)c2cccs2)nc1C,"8.91 µM [falling, partial curve, poor fit]",–
O=C(CN1CCN(Cc2cccc(Cl)c2)C1=O)NCc1ccc(F)cc1,"22.4 µM [falling, partial curve, poor fit]",–
COc1ccc(C(=O)NCC2(c3ccccc3)CCOCC2)cc1,"0.316 µM [falling, full curve, poor fit]",–
COc1ccc2[nH]c(C)c(C(=O)CN3CCN(C/C=C/c4ccccc4)CC3)c2c1,"28.2 µM [falling, single point]",–
O=C1C(NS(=O)(=O)c2cccs2)=C(N2CCN(c3cccc(Cl)c3)CC2)C(=O)c2ccccc21,"20.6 µM [rising, partial curve, poor fit]",–
COc1ccccc1N1CCN(C(=O)C(C)NC(=O)c2ccco2)CC1 (configuration not stated),"0.651 µM [rising, full curve, poor fit]",–
Cc1ccc(Cc2cnc(N3C(=N)SC(C)C3=O)s2)cc1 (configuration not stated),"3.55 µM [rising, partial curve, poor fit]","3.16 µM [falling, single point]"
O=c1cc2c(nn1Cc1ccc(Cl)cc1)-c1ccccc1CC2,"29.1 µM [falling, partial curve, poor fit]",–
C/C(=N/NC(=O)c1ccc(C)s1)c1cccnc1,"2.24 µM [falling, full curve, poor fit]",–
CCc1ccc2nc(N(Cc3cccnc3)C(C)=O)sc2c1,"35.5 µM [rising, single point]",–
O=C(CC(NC(=O)c1ccccc1)c1ccccc1)Nc1ccc(F)c(F)c1 (configuration not stated),"6.31 µM [rising, single point]",–

Compound,AC50 [1],AC50 [2]
COc1ccc(CCNc2nc3ccccc3n3nnnc23)cc1OC,"2.59 µM [falling, partial curve]",–
Cc1cc(C)c2c(-n3cccc3)c(C(=O)NNS(=O)(=O)c3ccc(Br)cc3)sc2n1,"3.55 µM [falling, partial curve]",–
COc1cccc(OCC(=O)NNC(=O)C(=O)Nc2cccc(C)c2)c1,"1.41 µM [falling, single point]",–
Cc1ccc(Cl)cc1N1CCN(C(=O)c2ccc(CN3CCOCC3)cc2)CC1,"32.6 µM [falling, single point]",–
O=C(NC(Nc1nc2ccc([N+](=O)[O-])cc2s1)(C(F)(F)F)C(F)(F)F)c1ccccc1Cl,"29.1 µM [falling, single point]",–
CCc1ccc2[nH]c(O)c(N=Nc3nc(-c4ccccc4)cs3)c2c1,"5.01 µM [rising, partial curve, poor fit]",–
COc1ccc(CC(=O)Nc2ccc(-c3noc(-c4ccc(Cl)cc4)n3)cc2)cc1,"29.1 µM [rising, single point]",–
Cc1ccc(-c2nc(Nc3ccc(N4CCOCC4)cc3)c3ccccc3n2)cc1,"14.1 µM [falling, partial curve, poor fit]","11.2 µM [rising, partial curve, poor fit]"
COc1cccc(N(C(=O)CNC(=O)c2ccco2)C(C(=O)NC2CCCC2)c2ccncc2)c1 (configuration not stated),"6.51 µM [falling, single point]","3.66 µM [rising, partial curve, poor fit]"
CCOCCCNC(=O)C(c1ccc(Cl)cc1)N(Cc1cccs1)C(=O)CNC(C)=O (configuration not stated),"32.6 µM [rising, partial curve, poor fit]",–
CC(=O)Oc1ccc(-c2ccc(C(=O)Nc3cccc(S(=O)(=O)N4CCOCC4)c3)cc2)cc1,"35.5 µM [falling, single point]",–
CCC(CC)NC(=O)COC(=O)c1ccc(NS(=O)(=O)c2ccc3c(c2)OCCO3)cc1,"16.4 µM [rising, partial curve]","18.4 µM [falling, partial curve, poor fit]"
CCN1CCN(CC(O)COCC2COc3ccccc3O2)CC1 (configuration not stated),"1.58 µM [rising, full curve]",–
Cc1ccc(N2CC(C(=O)OCc3nnc(-c4ccccc4)o3)CC2=O)cc1 (configuration not stated),"10.3 µM [rising, partial curve, poor fit]",–
CCOc1cccc(C(=O)Nc2cccc(C(=O)NCC(C)C)c2)c1,"14.6 µM [falling, partial curve]",–
O=C(Nc1ccc(Cl)cc1)Nc1cccc(C(=O)O)c1,"0.708 µM [falling, full curve]",–
c1ccc2c(c1)CCN(c1nc3cc4c(cc3s1)OCO4)C2,"10.3 µM [falling, partial curve, poor fit]",–
CCCOc1ccc(C(=O)NNC(=S)NC(=O)c2ccccc2)cc1,"35.5 µM [rising, partial curve, poor fit]",–
Cc1ccc(NC(=O)Nc2cnccn2)cc1C,"35.5 µM [falling, single point]",–

# Of the compounds above, these have a nitro group on carbon.
Compound,AC50 [1],AC50 [2]
O=C(Nc1ccccc1C(=O)Nc1ccncc1)c1ccc([N+](=O)[O-])cc1,"2.51 µM [falling, full curve]",–
O=C(NC(Nc1nc2ccc([N+](=O)[O-])cc2s1)(C(F)(F)F)C(F)(F)F)c1ccccc1Cl,"29.1 µM [falling, single point]",–
